Experimental data: paper PMC7010797

Legend:
[1] = biological target: MmCpn•Cys-0, cysteine-less variant of the Methanococcus maripaludis group II chaperonin (Methanococcus maripaludis); assay: native gel or EMSA; non-denaturing 1% agarose gel (1 mM MgCl2, 80 mM MOPS pH 7.4); 0.25 uM MmCpn mixed with 1 uM denatured Cy3-rhodanese in ATPase buffer, 10 min on ice, aggregates spun out; then no ATP, 1 mM ATP or ATP-AlFx for 1 h at 37 C; Cy3 fluorescence co-migrating with the chaperonin band (Sypro Ruby); both purified
[2] = biological target: wild type group II chaperonin from Methanococcus maripaludis (MmCpn WT) (Methanococcus maripaludis); assay: as above

B1: denatured Cy3-maleimide labeled bovine rhodanese (enzyme, UniProt P00586 1-297)
chain: MVHQVLYRALVSTKWLAESVRAGKVGPGLRVLDASWYSPGTREARKEYLERHVPGASFFDIEECRDKASPYEVMLPSEAGFADYVGSLGISNDTHVVVYDGDDLGSFYAPRVWWMFRVFGHRTVSVLNGGFRNWLKEGHPVTSEPSRPEPAIFKATLNRSLLKTYEQVLENLESKRFQLVDSRAQGRYLGTQPEPDAVGLDSGHIRGSVNMPFMNFLTEDGFEKSPEELRAMFEAKKVDLTKPLIATCRKGVTACHIALAAYLCGKPDVAIYDGSWFEWFHRAPPETWVSQGKGGKA
modifications: Cy3-maleimide label (positions not stated)
[1]
  binding: binds
[2]
  binding: binds

These are yes or no findings as the source states them, for the method shown. Binding can be weak; no strength is given.
